# Results reported in the supplement of paper PMC8728848.
# The other results are listed elsewhere or left out.
# B1: Intelectin 1 (Homo sapiens), Q8WWA0 (protein)
# chain: MNQLSFLLFLIATTRGWSTDEANTYFKEWTCSSSPSLPRSCKEIKDECPSAFDGLYFLRTENGVIYQTFCDMTSGGGGWTLVASVHENDMRGKCTVGDRWSSQQGSKAVYPEGDGNWANYNTFGSAEAATSDDYKNPGYYDIQAKDLGIWHVPNKSPMQHWRNSSLLRYRTDTGFLQTLGHNLFGIYQKYPVKYGEGKCWTDNGPVIPVVYDFGDAQKTASYYSPYGQREFTAGFVQFRVFNNERAANALCAGMRVTGCNTEHHCIGGGGYFPEASPQQCGDFSGFDWSGYGTHVGYSSSREITEAAVLLFYR
# Key:
# Test in all cases: glycan array binding signal (z-score within array); higher = stronger binding
# Details in all cases: glycan notation: IUPAC condensed, linker removed
# [1] = biological target: Fuc(a1-2)[Gal(a1-3)]Gal(b1-4)Glc
# Method in brief: (§1)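 The Consortium for Functional Glycomics database supplied 3228 glycan arrays, of which those lacking an available protein sequence were dropped. The binding signal, a within-array Z-score, was averaged across arrays of the same protein sequence and across linkers. Negative scores can be read as non-binding.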
# [2] = biological target: Fuc(a1-2)[Gal(a1-3)]Gal(b1-4)GlcNAc
# Method in brief: as §1
# [3] = biological target: Fuc(a1-2)[Gal(a1-3)]Gal(b1-4)GlcNAc(b1-2)Man(a1-3)[Fuc(a1-2)[Gal(a1-3)]Gal(b1-4)GlcNAc(b1-2)Man(a1-6)]Man(b1-4)GlcNAc(b1-4)GlcNAc
# Method in brief: as §1
# [4] = biological target: Fuc(a1-2)[Gal(a1-3)]Gal(b1-4)GlcNAc(b1-2)Man(a1-3)[Fuc(a1-2)[Gal(a1-3)]Gal(b1-4)GlcNAc(b1-2)Man(a1-6)]Man(b1-4)GlcNAc(b1-4)[Fuc(a1-6)]GlcNAc
# Method in brief: as §1
# [5] = biological target: Fuc(a1-2)[Gal(a1-3)]Gal(b1-4)GlcNAc(b1-3)GalNAc
# Method in brief: as §1
# [6] = biological target: Fuc(a1-2)[Gal(a1-3)]Gal(b1-4)[Fuc(a1-3)]Glc
# Method in brief: as §1
# [7] = biological target: Fuc(a1-2)[Gal(a1-3)]Gal(b1-4)[Fuc(a1-3)]GlcNAc
# Method in brief: as §1
# [8] = biological target: Fuc(a1-2)[Gal(a1-3)]Gal(b1-4)[Fuc(a1-3)]GlcNAc(b1-3)GalNAc
# Method in brief: as §1
# [9] = biological target: Fuc(a1-2)[Gal(a1-4)]Gal(b1-4)GlcNAc
# Method in brief: as §1
# [10] = biological target: Fuc(a1-2)[GalNAc(a1-3)]Gal
# Method in brief: as §1
# [11] = biological target: Fuc(a1-2)[GalNAc(a1-3)]Gal(b1-3)GalNAc(a1-3)[Fuc(a1-2)]Gal(b1-4)GlcNAc
# Method in brief: as §1
# [12] = biological target: Fuc(a1-2)[GalNAc(a1-3)]Gal(b1-3)GlcNAc
# Method in brief: as §1
# [13] = biological target: Fuc(a1-2)[GalNAc(a1-3)]Gal(b1-3)GlcNAc(b1-2)Man(a1-3)[Fuc(a1-2)[GalNAc(a1-3)]Gal(b1-3)GlcNAc(b1-2)Man(a1-6)]Man(b1-4)GlcNAc(b1-4)GlcNAc
# Method in brief: as §1
# [14] = biological target: Fuc(a1-2)[GalNAc(a1-3)]Gal(b1-3)GlcNAc(b1-2)Man(a1-3)[Fuc(a1-2)[GalNAc(a1-3)]Gal(b1-3)GlcNAc(b1-2)Man(a1-6)]Man(b1-4)GlcNAc(b1-4)[Fuc(a1-6)]GlcNAc
# Method in brief: as §1
# [15] = biological target: Fuc(a1-2)[GalNAc(a1-3)]Gal(b1-3)GlcNAc(b1-3)GalNAc
# Method in brief: as §1
# [16] = biological target: Fuc(a1-2)[GalNAc(a1-3)]Gal(b1-4)Glc
# Method in brief: as §1
# [17] = biological target: Fuc(a1-2)[GalNAc(a1-3)]Gal(b1-4)GlcNAc
# Method in brief: as §1
# [18] = biological target: Fuc(a1-2)[GalNAc(a1-3)]Gal(b1-4)GlcNAc(b1-2)Man(a1-3)[Fuc(a1-2)[GalNAc(a1-3)]Gal(b1-4)GlcNAc(b1-2)Man(a1-6)]Man(b1-4)GlcNAc(b1-4)GlcNAc
# Method in brief: as §1
# [19] = biological target: Fuc(a1-2)[GalNAc(a1-3)]Gal(b1-4)GlcNAc(b1-2)Man(a1-3)[Fuc(a1-2)[GalNAc(a1-3)]Gal(b1-4)GlcNAc(b1-2)Man(a1-6)]Man(b1-4)GlcNAc(b1-4)[Fuc(a1-6)]GlcNAc
# Method in brief: as §1
# [20] = biological target: Fuc(a1-2)[GalNAc(a1-3)]Gal(b1-4)GlcNAc(b1-3)Gal(b1-4)GlcNAc
# Method in brief: as §1
# [21] = biological target: Fuc(a1-2)[GalNAc(a1-3)]Gal(b1-4)GlcNAc(b1-3)Gal(b1-4)GlcNAc(b1-3)Gal(b1-4)GlcNAc
# Method in brief: as §1
# [22] = biological target: Fuc(a1-2)[GalNAc(a1-3)]Gal(b1-4)GlcNAc(b1-3)GalNAc
# Method in brief: as §1
# [23] = biological target: Fuc(a1-2)[GalNAc(a1-3)]Gal(b1-4)[Fuc(a1-3)]GlcNAc
# Method in brief: as §1
# [24] = biological target: Fuc(a1-2)[GalNAc(a1-3)]Gal(b1-4)[Fuc(a1-3)]GlcNAc(b1-3)GalNAc
# Method in brief: as §1
# [25] = biological target: Fuc(a1-2)[GalNAc(a1-4)]Gal(b1-4)GlcNAc
# Method in brief: as §1
# [26] = biological target: Fuc(a1-2)[GalNAc(b1-3)]Gal
# Method in brief: as §1
# Fuc(a1-3)GlcNAc = biological target: Fuc(a1-3)GlcNAc
# Method in brief: as §1
# [27] = biological target: Fuc(a1-3)[Gal(b1-4)]Glc6S
# Method in brief: as §1
# [28] = biological target: Fuc(a1-3)[Gal(b1-4)]GlcNAc
# Method in brief: as §1
# [29] = biological target: Fuc(a1-3)[Gal(b1-4)]GlcNAc(b1-2)Man(a1-3)[Fuc(a1-3)[Gal(b1-4)]GlcNAc(b1-2)Man(a1-6)]Man(b1-4)GlcNAc(b1-4)GlcNAc
# Method in brief: as §1
# [30] = biological target: Fuc(a1-3)[Gal(b1-4)]GlcNAc(b1-2)Man(a1-3)[Fuc(a1-3)[Gal(b1-4)]GlcNAc(b1-2)Man(a1-6)]Man(b1-4)GlcNAc(b1-4)[Fuc(a1-6)]GlcNAc
# Method in brief: as §1
# [31] = biological target: Fuc(a1-3)[Gal(b1-4)]GlcNAc(b1-3)Gal(b1-3)[Fuc(a1-4)]GlcNAc
# Method in brief: as §1
# [32] = biological target: Fuc(a1-3)[Gal(b1-4)]GlcNAc(b1-3)GalNAc
# Method in brief: as §1
# [33] = biological target: Fuc(a1-3)[Gal(b1-4)]GlcNAc(b1-4)Gal(b1-4)[Fuc(a1-3)]GlcNAc
# Method in brief: as §1
# [34] = biological target: Fuc(a1-3)[Gal(b1-4)]GlcNAc(b1-4)Gal(b1-4)[Fuc(a1-3)]GlcNAc(b1-4)Gal(b1-4)[Fuc(a1-3)]GlcNAc
# Method in brief: as §1
# [35] = biological target: Fuc(a1-3)[Gal(b1-4)]GlcNAc(b1-6)GalNAc
# Method in brief: as §1
# [36] = biological target: Fuc(a1-3)[Gal(b1-4)]GlcNAc(b1-6)[Gal(b1-3)GlcNAc(b1-3)]Gal(b1-4)Glc
# Method in brief: as §1
# [37] = biological target: Fuc(a1-3)[Gal(b1-4)]GlcNAc(b1-6)[Neu5Ac(a2-3)Gal(b1-3)]GalNAc
# Method in brief: as §1
# [38] = biological target: Fuc(a1-3)[Gal(b1-4)]GlcNAc6S
# Method in brief: as §1
# [39] = biological target: Fuc(a1-3)[Gal3S(b1-4)]GlcNAc
# Method in brief: as §1
# [40] = biological target: Fuc(a1-3)[Gal3S(b1-4)]GlcNAc6S
# Method in brief: as §1
# [41] = biological target: Fuc(a1-3)[GalNAc(b1-4)]GlcNAc
# Method in brief: as §1
# Fuc(a1-4)GlcNAc = biological target: Fuc(a1-4)GlcNAc
# Method in brief: as §1
# Fuc(b1-3)GlcNAc = biological target: Fuc(b1-3)GlcNAc
# Method in brief: as §1
# Gal(a1-2)Gal = biological target: Gal(a1-2)Gal
# Method in brief: as §1
binder,measurement,setting,value
B1,glycan array binding signal (z-score),[1],-0.412
same,glycan array binding signal (z-score),[2],-0.298
same,glycan array binding signal (z-score),[3],-0.198
same,glycan array binding signal (z-score),[4],0.011
same,glycan array binding signal (z-score),[5],-0.063
same,glycan array binding signal (z-score),[6],0.569
same,glycan array binding signal (z-score),[7],0.511
same,glycan array binding signal (z-score),[8],-0.244
same,glycan array binding signal (z-score),[9],-0.211
same,glycan array binding signal (z-score),[10],-0.164
same,glycan array binding signal (z-score),[11],-0.339
same,glycan array binding signal (z-score),[12],-0.613
same,glycan array binding signal (z-score),[13],-0.821
same,glycan array binding signal (z-score),[14],1.21
same,glycan array binding signal (z-score),[15],0.94
same,glycan array binding signal (z-score),[16],0.011
same,glycan array binding signal (z-score),[17],-0.851
same,glycan array binding signal (z-score),[18],-0.344
same,glycan array binding signal (z-score),[19],-0.51
same,glycan array binding signal (z-score),[20],-0.387
same,glycan array binding signal (z-score),[21],-0.766
same,glycan array binding signal (z-score),[22],0.21
same,glycan array binding signal (z-score),[23],1.26
same,glycan array binding signal (z-score),[24],0.747
same,glycan array binding signal (z-score),[25],-0.505
same,glycan array binding signal (z-score),[26],0.299
same,glycan array binding signal (z-score),Fuc(a1-3)GlcNAc,-0.706
same,glycan array binding signal (z-score),[27],0.41
same,glycan array binding signal (z-score),[28],-0.618
same,glycan array binding signal (z-score),[29],0.131
same,glycan array binding signal (z-score),[30],0.394
same,glycan array binding signal (z-score),[31],0.245
same,glycan array binding signal (z-score),[32],0.022
same,glycan array binding signal (z-score),[33],0.645
same,glycan array binding signal (z-score),[34],0.26
same,glycan array binding signal (z-score),[35],-0.284
same,glycan array binding signal (z-score),[36],0.294
same,glycan array binding signal (z-score),[37],-0.6
same,glycan array binding signal (z-score),[38],1.08
same,glycan array binding signal (z-score),[39],-0.215
same,glycan array binding signal (z-score),[40],0.673
same,glycan array binding signal (z-score),[41],0.402
same,glycan array binding signal (z-score),Fuc(a1-4)GlcNAc,-0.919
same,glycan array binding signal (z-score),Fuc(b1-3)GlcNAc,0.358
same,glycan array binding signal (z-score),Gal(a1-2)Gal,0.438
